In PubChem BioAssay:
Where “and” joins values, the source holds several entries; their conditions need not be identical. Identical values can stand only once. Some of the results follow. Entries with a potency or affinity are not part of this list. Where no call is shown, the source marks the result inconclusive.

Key:
[1] = Drosophila SCA1 whole organism dose response for polyglutamine toxicity reduction (AID 1595); conditions: Drosophila SCA1 polyglutamine model, at 1 µM, stronger effect = higher value
PubChem AID 1597 = conditions: Drosophila SCA1 polyglutamine model, at 1 µM, stronger effect = higher value

Row | SMILES | suppression of toxicity [1] | suppression of toxicity (PubChem AID 1597)
1 | CCOC(=O)[C@H](CCc1ccccc1)N[C@@H](C)C(=O)N1Cc2ccccc2C[C@H]1C(=O)O | 1.43 | 2.15
2 | CC(=O)Nc1ccc(O)cc1 | 0 | 0.715
3 | CCC(=O)OC1CCC2C3CCc4cc(O)ccc4C3CCC12C (stereo not given) | 1.43 | 1.43
4 | C[N+](C)(C)CC(O)CC(=O)O (stereo not given) | 1.43 | 0
5 | COc1ccc([C@@H]2CC(=O)c3c(O)cc(O[C@@H]4O[C@H](CO[C@H]5O[C@@H](C)[C@H](O)[C@@H](O)[C@H]5O)[C@@H](O)[C@H](O)[C@H]4O)cc3O2)cc1O | 0 | 2.15
6 | CCn1cc(C(=O)O)c(=O)c2cc3c(cc21)OCO3 | 1.43 | 4.29
7 | CCN(CC)CCOC(=O)C1(C2CCCCC2)CCCCC1 | 5.71 | 10
8 | Nc1c2c(nc3ccccc13)CCCC2 | 8.57 | 10.7
9 | C[C@]12CCC3c4ccc(OS(=O)(=O)O)cc4CCC3C1CC[C@H]2O (stereo not given in full) | 0 | 5
10 | Cc1ccccc1N1C(=O)c2cc(S(N)(=O)=O)c(Cl)cc2NC1C (stereo not given) | 0 | 1.43
11 | CN[C@@H]1[C@H](OC2[C@H](O[C@H]3[C@H](O)[C@@H](O)[C@H](N=C(N)N)[C@@H](O)[C@@H]3N=C(N)N)O[C@@H](C)[C@]2(O)C=O)O[C@@H](CO)[C@H](O)[C@H]1O (stereo not given in full) | 2.85 | 2.86
12 | N#Cc1ccc2c(c1)N(CCCN1CCC(O)CC1)c1ccccc1S2 | 1.43 | 1.43
13 | CC(=O)NO | 7.14 | 7.14
14 | CC(C)C[C@@H](NC(=O)OCC1c2ccccc2-c2ccccc21)C(=O)O | 0 | 0.715
15 | CC12CCC3C(=CCc4cc(O)ccc43)C1CCC2=O (stereo not given) | 7.14 | 10
16 | CN1CCN2c3ccccc3Cc3ccccc3C2C1 (stereo not given) | 1.43 | 6.42
17 | Cc1cc(C)nc(NS(=O)(=O)c2ccc(N)cc2)n1 | 5.71 | 10.7
18 | CN1C(C(=O)Nc2ccccn2)=C(O)c2sccc2S1(=O)=O | 2.85 | 9.29
19 | NC(=O)c1cc[n+](CC2=C(C(=O)O)N3C(=O)C(NC(=O)C(c4ccccc4)S(=O)(=O)[O-])C3SC2)cc1 (stereo not given) | 0 | 0.715
20 | C/C=C(/C(=C/C)c1ccc(O)cc1)c1ccc(O)cc1 | 1.43 | 3.57
21 | O=C(O)C1=CCNCC1 | 5.71 | 4.29
22 | Fc1ccc(C(c2ccccc2)(c2ccccc2F)n2ccnc2)cc1 (stereo not given) | 0 | 0 and 2.86
23 | COc1ccc(NS(=O)(=O)c2ccc(N)cc2)nn1 | 0 | 5

Row | SMILES | suppression of toxicity [1] | suppression of toxicity (PubChem AID 1597)
24 | CC(=O)Nc1ccc(OC(=O)c2ccccc2O)cc1 | 2.86 | 2.86
25 | CN1CCC(OC(c2ccccc2)c2ccccc2)CC1 | 0 | 3.58
26 | CCN1CCCC(OC(=O)C(c2ccccc2)c2ccccc2)C1 (stereo not given) | 1.43 | 8.57
27 | C[C@H](CCC(=O)O)[C@H]1CCC2C3C(CC[C@@]21C)[C@@]1(C)CC[C@@H](O)C[C@H]1C[C@H]3O (stereo not given in full) | 14.3 | 0.715
28 | CC(NCCC(c1ccccc1)c1ccccc1)c1ccccc1 (stereo not given) | 1.43 | 7.86
29 | CC(COc1ccccc1)N(CCCl)Cc1ccccc1 (stereo not given) | 0 | 2.85
30 | CC(C)(C)NCC(O)c1ccc(O)c(CO)c1 (stereo not given) | 0 | 0.715
31 | Cn1c(=O)[nH]c2ncn(C)c2c1=O | 4.29 | 3.58
32 | O=C(CCCN1CCC(O)(c2ccc(Cl)cc2)CC1)c1ccc(F)cc1 | 8.57 | 13.6
33 | O=C(O)c1cc(=O)c2ccccc2[nH]1 | 1.43 | 8.57
34 | Cn1c(=O)c2[nH]cnc2n(C)c1=O | 1.43 | 6.42
35 | O=C(OCc1ccccc1)c1ccccc1 | 1.43 | 2.86
36 | O=C(c1ccccc1)c1ccc2n1CCC2C(=O)O (stereo not given) | 0 | 0.715
37 | NCC[C@@H](O)C(=O)N[C@@H]1C[C@H](N)[C@@H](O[C@H]2O[C@H](CN)[C@@H](O)[C@H](O)[C@H]2O)[C@H](O)[C@H]1O[C@H]1O[C@H](CO)[C@@H](O)[C@H](N)C1O (stereo not given in full) | 0 | 7.14
38 | Cc1c(OCC(F)(F)F)ccnc1CS(=O)c1nc2ccccc2[nH]1 (stereo not given) | 0 | 0.715
39 | CC1Cc2ccccc2N1NC(=O)c1ccc(Cl)c(S(N)(=O)=O)c1 (stereo not given) | 0 | 0.715
40 | Cc1noc(NS(=O)(=O)c2ccc(N)cc2)c1C | 21.4 | 0.715
41 | Cn1nnnc1SCC1=C(C(=O)O)N2C(=O)C(NC(=O)C(OC=O)c3ccccc3)C2SC1 (stereo not given) | 0 | 12.9
42 | CCCCNc1cc(C(=O)O)cc(S(N)(=O)=O)c1Oc1ccccc1 | 8.57 | 12.9
43 | Cc1cc(Nc2ccccc2C(=O)O)ccc1Cl | 2.85 | 3.57
44 | CN[C@@H]1C(O)[C@@H](O[C@@H]2[C@@H](O)[C@H](O[C@H]3OC(CN)=CC[C@H]3N)[C@@H](N)C[C@H]2N)OC[C@]1(C)O (stereo not given in full) | 1.43 | 8.57
45 | CC1(C)S[C@@H]2[C@H](NC(=O)[C@H](N)c3ccccc3)C(=O)N2[C@H]1C(=O)O | 0 | 2.15
